Reference: patent publication US20260209208A1, “PHENYL-PYRAZOLE CARBOXAMIDE COMPOUNDS” (Acrivon Therapeutics, Inc., priority 2022, published 2026)
The name of at least one read-out is uncertain.

Experiment: Oral bioavailability study in mice
Assay type: in vivo
Settings: female CD-1 mice, PO 3 mg/kg vs IV 1 mg/kg
Description: We compared the oral bioavailability of Compound 75:
(Compound A), which has a thiazolyl moiety in place of the furanyl moiety in Compound 75. Female CD-1 mice treated with a single intravenous bolus (IV; 1 mg/kg) or oral gavage (PO; 3 mg/kg) of one of the compounds. The percent bioavailability (% F) was calculated by dividing the dose normalized area under the plasma concentration curve (AUC0-∞) by the dose normalized IV plasma AUC0-∞.

Cc1ccc(O)c(C)c1-n1nc(-c2ccco2)c(C(N)=O)c1N [Compound 75, 5-amino-3-(2-furyl)-1-(3-hydroxy-2,6-xylyl)-4-pyrazolecarboxamide]
bioavailability relative to Compound A: twice
